Where a sequence shows no end group, the ends are not given.
Assay: peptide made by a vendor
Details: whole synthesis, high-performance liquid chromatography (by manufacturers), acetate (acetate content analysed by HPLC)

Sequence	purity (crude or final not stated) [%]
RRRRRRRRRRRRRRR	92.1
RRRRRRRRRRRRRR	88.7

Source: patent publication US20170107254A1 (priority 2014, published 2017)
